Results on 3 molecules are retold here after PMC4858180.

Protein sequences, listed by entry. Tags and fused reporters are not part of them. Residues count along the entry.
UniProt Q8K4G1, residues 25-1666: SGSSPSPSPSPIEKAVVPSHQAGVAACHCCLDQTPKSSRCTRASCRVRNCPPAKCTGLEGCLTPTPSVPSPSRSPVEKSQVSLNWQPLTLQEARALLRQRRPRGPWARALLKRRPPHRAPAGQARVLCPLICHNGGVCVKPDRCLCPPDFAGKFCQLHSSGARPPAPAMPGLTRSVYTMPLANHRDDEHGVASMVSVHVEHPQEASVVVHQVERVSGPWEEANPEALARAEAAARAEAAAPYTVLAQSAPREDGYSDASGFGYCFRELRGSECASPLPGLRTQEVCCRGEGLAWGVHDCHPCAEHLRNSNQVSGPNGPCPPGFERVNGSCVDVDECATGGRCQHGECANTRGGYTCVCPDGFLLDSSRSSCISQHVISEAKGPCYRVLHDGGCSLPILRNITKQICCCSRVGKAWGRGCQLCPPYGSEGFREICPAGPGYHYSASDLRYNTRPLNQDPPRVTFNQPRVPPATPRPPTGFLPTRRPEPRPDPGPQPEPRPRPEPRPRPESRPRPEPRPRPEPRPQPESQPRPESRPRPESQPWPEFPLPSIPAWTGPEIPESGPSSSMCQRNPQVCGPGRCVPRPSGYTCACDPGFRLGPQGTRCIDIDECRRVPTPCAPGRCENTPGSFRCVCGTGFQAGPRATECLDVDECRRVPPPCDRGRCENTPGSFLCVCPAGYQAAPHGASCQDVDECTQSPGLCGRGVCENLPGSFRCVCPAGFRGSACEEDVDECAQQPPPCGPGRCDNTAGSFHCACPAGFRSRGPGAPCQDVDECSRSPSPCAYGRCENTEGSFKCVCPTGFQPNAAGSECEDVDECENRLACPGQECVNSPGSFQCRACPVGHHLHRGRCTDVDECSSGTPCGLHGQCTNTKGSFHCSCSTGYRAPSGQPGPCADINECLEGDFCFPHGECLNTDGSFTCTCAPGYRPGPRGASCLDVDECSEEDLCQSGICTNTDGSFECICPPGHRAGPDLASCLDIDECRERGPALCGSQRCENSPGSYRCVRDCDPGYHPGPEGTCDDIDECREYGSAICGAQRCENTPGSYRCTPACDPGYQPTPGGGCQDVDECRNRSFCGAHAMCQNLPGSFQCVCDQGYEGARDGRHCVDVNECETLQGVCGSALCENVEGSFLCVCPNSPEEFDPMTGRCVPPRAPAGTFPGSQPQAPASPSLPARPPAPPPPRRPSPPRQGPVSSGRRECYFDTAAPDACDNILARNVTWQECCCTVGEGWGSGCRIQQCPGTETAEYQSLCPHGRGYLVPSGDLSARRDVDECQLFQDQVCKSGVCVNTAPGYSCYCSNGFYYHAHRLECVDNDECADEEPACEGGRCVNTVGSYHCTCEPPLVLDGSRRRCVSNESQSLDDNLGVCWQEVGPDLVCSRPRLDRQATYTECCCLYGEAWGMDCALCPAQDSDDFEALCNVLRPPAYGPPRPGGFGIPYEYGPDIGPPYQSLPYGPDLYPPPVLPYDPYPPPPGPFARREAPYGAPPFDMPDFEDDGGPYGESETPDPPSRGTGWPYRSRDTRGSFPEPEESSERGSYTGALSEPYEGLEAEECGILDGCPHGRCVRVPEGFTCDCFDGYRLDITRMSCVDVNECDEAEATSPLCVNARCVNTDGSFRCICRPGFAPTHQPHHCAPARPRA
UniProt P04202, residues 30-390: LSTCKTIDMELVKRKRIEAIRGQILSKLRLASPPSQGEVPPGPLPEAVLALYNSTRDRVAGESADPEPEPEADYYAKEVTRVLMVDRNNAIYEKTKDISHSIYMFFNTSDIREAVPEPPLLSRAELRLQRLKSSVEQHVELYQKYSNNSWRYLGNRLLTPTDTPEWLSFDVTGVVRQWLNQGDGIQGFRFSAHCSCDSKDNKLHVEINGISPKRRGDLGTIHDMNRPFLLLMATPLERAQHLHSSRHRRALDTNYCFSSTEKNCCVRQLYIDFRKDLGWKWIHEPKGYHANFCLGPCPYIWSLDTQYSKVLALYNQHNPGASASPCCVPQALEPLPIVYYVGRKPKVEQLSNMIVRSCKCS

Results are given in words; binding and its absence hold for the method and conditions named. In cells and extracts the contact can be indirect. Some entries that bind do so weakly or less than the wild type. Where a sequence is shown, tags or fusion partners need not be part of it.

For the assay, the target named is mouse LTBP4-L (long isoform) with carboxy-terminal Xpress tag, expressed in HEK293T (mouse) (UniProt Q8K4G1). Nature of the assay: co-IP; lysates of co-transfected HEK293T cells (150 mM NaCl, 50 mM Tris HCl pH 8, 0.1% Triton X-100), 500 μg lysate; immunoprecipitated with anti-LTBP4 antibody, immunoblotted with anti-myc; control without precipitating antibody; 4°C. In general terms: A western blot detects proteins with antibodies after separation by electrophoresis.

Take “mouse TGFβ1, myc-DDK tagged (from UniProt P04202 30-390)”: the binding entry is “binds”.

B1: mouse TGFβ2, myc-DDK tagged (protein, UniProt P27090 21-414)
chain: LSTCSTLDMDQFMRKRIEAIRGQILSKLKLTSPPEDYPEPDEVPPEVISIYNSTRDLLQEKASRRAAACERERSDEEYYAKEVYKIDMPSHLPSENAIPPTFYRPYFRIVRFDVSTMEKNASNLVKAEFRVFRLQNPKARVAEQRIELYQILKSKDLTSPTQRYIDSKVVKTRAEGEWLSFDVTDAVQEWLHHKDRNLGFKISLHCPCCTFVPSNNYIIPNKSEELEARFAGIDGTSTYASGDQKTIKSTRKKTSGKTPHLLLMLLPSYRLESQQSSRRKKRALDAAYCFRNVQDNCCLRPLYIDFKRDLGWKWIHEPKGYNANFCAGACPYLWSSDTQHTKVLSLYNTINPEASASPCCVSQDLEPLTILYYIGNTPKIEQLSNMIVKSCKCS
B1: the binding result is reported as “binds”.

B2: mouse TGFβ3, myc-DDK tagged (protein, UniProt P17125 24-410)
chain: TCTTLDFGHIKKKRVEAIRGQILSKLRLTSPPEPSVMTHVPYQVLALYNSTRELLEEMHGEREEGCTQETSESEYYAKEIHKFDMIQGLAEHNELAVCPKGITSKVFRFNVSSVEKNGTNLFRAEFRVLRVPNPSSKRTEQRIELFQILRPDEHIAKQRYIGGKNLPTRGTAEWLSFDVTDTVREWLLRRESNLGLEISIHCPCHTFQPNGDILENVHEVMEIKFKGVDNEDDHGRGDLGRLKKQKDHHNPHLILMMIPPHRLDSPGQGSQRKKRALDTNYCFRNLEENCCVRPLYIDFRQDLGWKWVHEPKGYYANFCSGPCPYLRSADTTHSTVLGLYNTLNPEASASPCCVPQDLEPLTILYYVGRTPKVEQLSNMVVKSCKCS
Take B2: the binding result was “binds”.
